Data published in PMC3566902.
No constants are given. Whether binding was seen depends on the method and setting. Binding seen in cells or lysates may run through a third protein. Some binding calls cover weakened binding; strength is not graded here.

Sequences of proteins named here, by UniProt entry; tags and fusion partners are left off. Residues count along the entry.
UniProt P19022, residues 160-906: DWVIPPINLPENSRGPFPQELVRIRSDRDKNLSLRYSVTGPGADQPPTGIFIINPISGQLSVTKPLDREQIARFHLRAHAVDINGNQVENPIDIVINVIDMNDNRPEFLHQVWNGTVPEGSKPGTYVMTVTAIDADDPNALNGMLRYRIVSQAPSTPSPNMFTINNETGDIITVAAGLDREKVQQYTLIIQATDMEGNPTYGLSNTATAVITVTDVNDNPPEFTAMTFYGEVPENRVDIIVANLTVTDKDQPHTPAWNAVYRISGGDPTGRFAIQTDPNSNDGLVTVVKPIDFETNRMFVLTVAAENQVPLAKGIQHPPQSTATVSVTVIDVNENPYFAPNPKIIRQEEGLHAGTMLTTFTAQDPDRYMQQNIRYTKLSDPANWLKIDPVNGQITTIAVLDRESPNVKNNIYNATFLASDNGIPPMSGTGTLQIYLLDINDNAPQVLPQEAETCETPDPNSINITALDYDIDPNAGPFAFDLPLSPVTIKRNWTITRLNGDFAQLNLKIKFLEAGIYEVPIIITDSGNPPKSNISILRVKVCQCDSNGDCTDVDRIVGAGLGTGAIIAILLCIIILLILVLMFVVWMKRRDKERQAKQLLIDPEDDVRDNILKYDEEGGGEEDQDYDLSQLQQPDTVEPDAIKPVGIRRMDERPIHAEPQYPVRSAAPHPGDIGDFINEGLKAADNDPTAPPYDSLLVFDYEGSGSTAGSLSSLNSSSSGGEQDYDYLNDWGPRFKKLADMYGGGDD

Molecular target: N-cadherin (human (endogenous in HCLE)) (UniProt P19022)
Test: co-IP; endogenous proteins of HCLE cells (untreated, olomoucine-treated or ShCdk5), lysed in RIPA buffer; 200 μg of extract; immunoprecipitates collected on magnetic beads and immunoblotted

binding: binds
B1: p120 catenin (protein, UniProt O60716 1-968)
chain: MDDSEVESTASILASVKEQEAQFEKLTRALEEERRHVSAQLERVRVSPQDANPLMANGTLTRRHQNGRFVGDADLERQKFSDLKLNGPQDHSHLLYSTIPRMQEPGQIVETYTEEDPEGAMSVVSVETSDDGTTRRTETTVKKVVKTVTTRTVQPVAMGPDGLPVDASSVSNNYIQTLGRDFRKNGNGGPGPYVGQAGTATLPRNFHYPPDGYSRHYEDGYPGGSDNYGSLSRVTRIEERYRPSMEGYRAPSRQDVYGPQPQVRVGGSSVDLHRFHPEPYGLEDDQRSMGYDDLDYGMMSDYGTARRTGTPSDPRRRLRSYEDMIGEEVPSDQYYWAPLAQHERGSLASLDSLRKGGPPPPNWRQPELPEVIAMLGFRLDAVKSNAAAYLQHLCYRNDKVKTDVRKLKGIPVLVGLLDHPKKEVHLGACGALKNISFGRDQDNKIAIKNCDGVPALVRLLRKARDMDLTEVITGTLWNLSSHDSIKMEIVDHALHALTDEVIIPHSGWEREPNEDCKPRHIEWESVLTNTAGCLRNVSSERSEARRKLRECDGLVDALIFIVQAEIGQKDSDSKLVENCVCLLRNLSYQVHREIPQAERYQEAAPNVANNTGPHAASCFGAKKGKDEWFSRGKKPIEDPANDTVDFPKRTSPARGYELLFQPEVVRIYISLLKESKTPAILEASAGAIQNLCAGRWTYGRYIRSALRQEKALSAIADLLTNEHERVVKAASGALRNLAVDARNKELIGKHAIPNLVKNLPGGQQNSSWNFSEDTVISILNTINEVIAENLEAAKKLRETQGIEKLVLINKSGNRSEKEVRAAALVLQTIWGYKELRKPLEKEGWKKSDFQVNLNNASRSQSSHSYDDSTLPLIDRNQKSDKKPDREEIQMSNMGSNTKSLDNNYSTPNERGDHNRTLDRSGDLGDMEPLKGTTPLMQDEGQESLEEELDVLVLDDEGGQVSYPSMQKI
